Laboratory results published in paper PMC7819943, “Rice protein-binding microarrays: a tool to detect cis-acting elements near promoter regions in rice”.
This is one part of the list.

Protein sequences, listed by entry. Tags and fused reporters are not part of them.
UniProt Q0JBA9, entry or part of it: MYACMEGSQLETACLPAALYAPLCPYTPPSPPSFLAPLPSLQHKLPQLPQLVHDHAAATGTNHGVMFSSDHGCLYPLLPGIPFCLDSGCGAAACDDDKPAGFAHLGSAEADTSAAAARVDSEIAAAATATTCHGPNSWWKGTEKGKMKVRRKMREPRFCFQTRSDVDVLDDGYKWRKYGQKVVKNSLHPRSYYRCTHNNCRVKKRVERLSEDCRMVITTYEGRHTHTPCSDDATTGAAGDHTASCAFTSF

molecular target: OsWRKY34 (Oryza sativa, UniProt Q0JBA9 1-250); experiment: protein-binding microarray (RPBM); PBS, 2% BSA, 51.3 ng/ul salmon testes DNA, 50 uM zinc acetate, 200 nM TF, 25 C, 1 h; high values mean tight binding; details: protein: recombinant; tags: N-terminal polyhistidine and DsRed monomer fusion (pET32a); label: CyDye5-dUTP incorporated in the synthesized complementary strand; 3' TTTTT single-stranded linker to array surface; dsDNA, one strand shown
In short: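 For the binding signal, per-feature fluorescence intensity was read in arbitrary units on an Axon 4000B scanner. Before scanning, a 2% BSA-blocked custom Agilent array made double-stranded with Cy5-dUTP was washed after 1 h at 25 °C with 200 nM protein and 50 µM zinc acetate. The proteins were Ni–NTA-purified transcription factors with N-terminal polyhistidine and DsRed fusions, expressed in E. coli BL21-CodonPlus.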

Q: For “ACTGGGATTCTAATAGTCATTATTCATGTGTTTTTTGTTTCGGAGTCACCTAGTGCAG”, which binding signal is on record?
A: 8350 fluorescence intensity (a.u.)

Q: With “GGTGCTACTCCCAACGTCATATGTTGACCAGCGTCGAAGGCGGAGTCACCTAGTGCAG” as the sequence, how does the binding signal read?
A: 9900 fluorescence intensity (a.u.)

Q: Which binding signal does the source give for “CTCCAGCCGATATACATGCAGCCGCTGTCATCTTTTGTTCCGGAGTCACCTAGTGCAG” here?
A: 9100 fluorescence intensity (a.u.)

Q: “AGTGTTAATGTCAGAGTTTGTTCCAGGTATTTTCAGTTGACGGAGTCACCTAGTGCAG” was tested. Which binding signal did it give?
A: 9250 fluorescence intensity (a.u.)

Q: For “TCGTCTTATTTGATTTTTTTTATAATTAGCATTTTTATTACGGAGTCACCTAGTGCAG”, which binding signal is on record?
A: 10100 fluorescence intensity (a.u.)

Q: With “AGCCGTCATCCTCAGTCTTGAATCTCATAGCAGTAATCGTCGGAGTCACCTAGTGCAG” as the sequence, how does the binding signal read?
A: 8170 fluorescence intensity (a.u.)

Q: With “TTTTCGTCGCTACTCCTACATGCGCTTCTATCTCTATTTACGGAGTCACCTAGTGCAG” as the sequence, how does the binding signal read?
A: 12400 fluorescence intensity (a.u.)

Q: For “GGTAGGATTGTACTTTTTTTTTTTTTGGGACGGAGGGGTACGGAGTCACCTAGTGCAG”, which binding signal is on record?
A: 10100 fluorescence intensity (a.u.)

Q: For “GGGGTAGTTGAGTGGCAATTTTGTGTAAATATGTAAAAAACGGAGTCACCTAGTGCAG”, which binding signal is on record?
A: 9160 fluorescence intensity (a.u.)

Q: With “ACCAAATTGTTCTCTATGTTACCGGTCAAGACTGCAGTTTCGGAGTCACCTAGTGCAG” as the sequence, how does the binding signal read?
A: 12900 fluorescence intensity (a.u.)

Q: With “GGACTCCTGATTTCTACTCTATTCCTATTCCACTAGCTTACGGAGTCACCTAGTGCAG” as the sequence, how does the binding signal read?
A: 14400 fluorescence intensity (a.u.)

Q: For “GTGCTCCAACTTCAGCCTCAACTTTTTATATTCACATTTACGGAGTCACCTAGTGCAG”, which binding signal is on record?
A: 8260 fluorescence intensity (a.u.)

Q: Which binding signal does the source give for “CTGATCTTAACTCCGTGTTTTTCCGCGTTCTCTTTCGTTCCGGAGTCACCTAGTGCAG” here?
A: 19600 fluorescence intensity (a.u.)

Q: For “ATGCACGTTTGTCCTGCTTTCCTTTCCTGTTGCTTCCATACGGAGTCACCTAGTGCAG”, which binding signal is on record?
A: 14500 fluorescence intensity (a.u.)

Q: With “TCCGCAACACCCATCTAGTTTACACCGGTAAATTCGGTCACGGAGTCACCTAGTGCAG” as the sequence, how does the binding signal read?
A: 8460 fluorescence intensity (a.u.)

Q: With “TTTCTTTTTGTTTTAAGTTACTTTTATAATTTATGTAAATCGGAGTCACCTAGTGCAG” as the sequence, how does the binding signal read?
A: 8680 fluorescence intensity (a.u.)

Q: Which binding signal does the source give for “TTCCCGTAAATACCGTTGCTTCTCGGTTGATATTCTGATACGGAGTCACCTAGTGCAG” here?
A: 11700 fluorescence intensity (a.u.)

Q: For “TTTTCAATTGTATGGCCCATTATAATGCACAAATATATAACGGAGTCACCTAGTGCAG”, which binding signal is on record?
A: 8380 fluorescence intensity (a.u.)

Q: Which binding signal does the source give for “CGTTGTTACCACCTCATTTTACGTGGAACATTTAATCTTTCGGAGTCACCTAGTGCAG” here?
A: 9030 fluorescence intensity (a.u.)

Q: For “TAAGCACAGTTGACTTTTTTTTTGGTGTGTTCCGGTGTATCGGAGTCACCTAGTGCAG”, which binding signal is on record?
A: 20900 fluorescence intensity (a.u.)

Q: For “TGTTTCATATCTATCTTATATGTTATATATACGTCGCATTCGGAGTCACCTAGTGCAG”, which binding signal is on record?
A: 9180 fluorescence intensity (a.u.)

Q: Which binding signal does the source give for “GACCGGCCAAGTGCTATAGCCGCTGCTCATCTCTCTAAACCGGAGTCACCTAGTGCAG” here?
A: 8070 fluorescence intensity (a.u.)

Q: For “TTGTCAAGTTGTTGTACTCGGATGTTCAATTCTCATGTTCCGGAGTCACCTAGTGCAG”, which binding signal is on record?
A: 10000 fluorescence intensity (a.u.)
